Experimental data: the supplement of paper PMC8728848
This is one part of the list.

Experiments:
Test in all cases: glycan array binding signal (z-score within array); higher = stronger binding
Settings in all cases: glycan notation: IUPAC condensed, linker removed
[1] = target: Fuc(a1-2)Gal6S(b1-3)GlcNAc
Method in brief: (§1)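 The binding signal is a Z-score computed within each array. Data were drawn from 3228 arrays in the Consortium for Functional Glycomics database, restricted to those with a known protein sequence. Scores were averaged over arrays of the same protein sequence at different concentrations or buffers, and over linkers, and negative values can be taken as non-binding.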

[2] = target: Fuc(a1-2)Gal6S(b1-3)GlcNAc6S
Method in brief: as §1

Fuc(a1-2)Gal6S(b1-4)Glc = target: Fuc(a1-2)Gal6S(b1-4)Glc
Method in brief: as §1

[3] = target: Fuc(a1-2)Gal6S(b1-4)Glc6S
Method in brief: as §1

Fuc(a1-2)[Gal(a1-3)]Gal = target: Fuc(a1-2)[Gal(a1-3)]Gal
Method in brief: as §1

[4] = target: Fuc(a1-2)[Gal(a1-3)]Gal(b1-3)GalNAc
Method in brief: as §1

[5] = target: Fuc(a1-2)[Gal(a1-3)]Gal(b1-3)GalNAc(b1-3)Gal(a1-4)Gal(b1-4)Glc
Method in brief: as §1

[6] = target: Fuc(a1-2)[Gal(a1-3)]Gal(b1-3)GlcNAc
Method in brief: as §1

[7] = target: Fuc(a1-2)[Gal(a1-3)]Gal(b1-3)GlcNAc(b1-2)Man(a1-3)[Fuc(a1-2)[Gal(a1-3)]Gal(b1-3)GlcNAc(b1-2)Man(a1-6)]Man(b1-4)GlcNAc(b1-4)GlcNAc
Method in brief: as §1

[8] = target: Fuc(a1-2)[Gal(a1-3)]Gal(b1-3)GlcNAc(b1-2)Man(a1-3)[Fuc(a1-2)[Gal(a1-3)]Gal(b1-3)GlcNAc(b1-2)Man(a1-6)]Man(b1-4)GlcNAc(b1-4)[Fuc(a1-6)]GlcNAc
Method in brief: as §1

[9] = target: Fuc(a1-2)[Gal(a1-3)]Gal(b1-3)GlcNAc(b1-3)GalNAc
Method in brief: as §1

[10] = target: Fuc(a1-2)[Gal(a1-3)]Gal(b1-3)GlcNAc(b1-6)GalNAc
Method in brief: as §1

[11] = target: Fuc(a1-2)[Gal(a1-3)]Gal(b1-4)Glc
Method in brief: as §1

[12] = target: Fuc(a1-2)[Gal(a1-3)]Gal(b1-4)GlcNAc
Method in brief: as §1

[13] = target: Fuc(a1-2)[Gal(a1-3)]Gal(b1-4)GlcNAc(b1-2)Man
Method in brief: as §1

[14] = target: Fuc(a1-2)[Gal(a1-3)]Gal(b1-4)GlcNAc(b1-2)Man(a1-3)[Fuc(a1-2)[Gal(a1-3)]Gal(b1-4)GlcNAc(b1-2)Man(a1-6)]Man(b1-4)GlcNAc(b1-4)GlcNAc
Method in brief: as §1

[15] = target: Fuc(a1-2)[Gal(a1-3)]Gal(b1-4)GlcNAc(b1-2)Man(a1-3)[Fuc(a1-2)[Gal(a1-3)]Gal(b1-4)GlcNAc(b1-2)Man(a1-6)]Man(b1-4)GlcNAc(b1-4)[Fuc(a1-6)]GlcNAc
Method in brief: as §1

[16] = target: Fuc(a1-2)[Gal(a1-3)]Gal(b1-4)GlcNAc(b1-3)GalNAc
Method in brief: as §1

[17] = target: Fuc(a1-2)[Gal(a1-3)]Gal(b1-4)GlcNAc(b1-6)GalNAc
Method in brief: as §1

[18] = target: Fuc(a1-2)[Gal(a1-3)]Gal(b1-4)[Fuc(a1-3)]Glc
Method in brief: as §1

[19] = target: Fuc(a1-2)[Gal(a1-3)]Gal(b1-4)[Fuc(a1-3)]GlcNAc
Method in brief: as §1

[20] = target: Fuc(a1-2)[Gal(a1-3)]Gal(b1-4)[Fuc(a1-3)]GlcNAc(b1-3)GalNAc
Method in brief: as §1

[21] = target: Fuc(a1-2)[Gal(a1-4)]Gal(b1-4)GlcNAc
Method in brief: as §1

[22] = target: Fuc(a1-2)[GalNAc(a1-3)]Gal
Method in brief: as §1

[23] = target: Fuc(a1-2)[GalNAc(a1-3)]Gal(b1-3)GalNAc(a1-3)[Fuc(a1-2)]Gal(b1-4)GlcNAc
Method in brief: as §1

[24] = target: Fuc(a1-2)[GalNAc(a1-3)]Gal(b1-3)GalNAc(b1-3)Gal(a1-4)Gal(b1-4)Glc
Method in brief: as §1

[25] = target: Fuc(a1-2)[GalNAc(a1-3)]Gal(b1-3)GlcNAc
Method in brief: as §1

[26] = target: Fuc(a1-2)[GalNAc(a1-3)]Gal(b1-3)GlcNAc(b1-2)Man(a1-3)[Fuc(a1-2)[GalNAc(a1-3)]Gal(b1-3)GlcNAc(b1-2)Man(a1-6)]Man(b1-4)GlcNAc(b1-4)GlcNAc
Method in brief: as §1

[27] = target: Fuc(a1-2)[GalNAc(a1-3)]Gal(b1-3)GlcNAc(b1-2)Man(a1-3)[Fuc(a1-2)[GalNAc(a1-3)]Gal(b1-3)GlcNAc(b1-2)Man(a1-6)]Man(b1-4)GlcNAc(b1-4)[Fuc(a1-6)]GlcNAc
Method in brief: as §1

[28] = target: Fuc(a1-2)[GalNAc(a1-3)]Gal(b1-3)GlcNAc(b1-3)GalNAc
Method in brief: as §1

[29] = target: Fuc(a1-2)[GalNAc(a1-3)]Gal(b1-3)GlcNAc(b1-6)GalNAc
Method in brief: as §1

[30] = target: Fuc(a1-2)[GalNAc(a1-3)]Gal(b1-4)Glc
Method in brief: as §1

[31] = target: Fuc(a1-2)[GalNAc(a1-3)]Gal(b1-4)GlcNAc
Method in brief: as §1

[32] = target: Fuc(a1-2)[GalNAc(a1-3)]Gal(b1-4)GlcNAc(b1-2)Man
Method in brief: as §1

[33] = target: Fuc(a1-2)[GalNAc(a1-3)]Gal(b1-4)GlcNAc(b1-2)Man(a1-3)[Fuc(a1-2)[GalNAc(a1-3)]Gal(b1-4)GlcNAc(b1-2)Man(a1-6)]Man(b1-4)GlcNAc(b1-4)GlcNAc
Method in brief: as §1

[34] = target: Fuc(a1-2)[GalNAc(a1-3)]Gal(b1-4)GlcNAc(b1-2)Man(a1-3)[Fuc(a1-2)[GalNAc(a1-3)]Gal(b1-4)GlcNAc(b1-2)Man(a1-6)]Man(b1-4)GlcNAc(b1-4)[Fuc(a1-6)]GlcNAc
Method in brief: as §1

[35] = target: Fuc(a1-2)[GalNAc(a1-3)]Gal(b1-4)GlcNAc(b1-3)Gal(b1-4)GlcNAc
Method in brief: as §1

[36] = target: Fuc(a1-2)[GalNAc(a1-3)]Gal(b1-4)GlcNAc(b1-3)Gal(b1-4)GlcNAc(b1-3)Gal(b1-4)GlcNAc
Method in brief: as §1

[37] = target: Fuc(a1-2)[GalNAc(a1-3)]Gal(b1-4)GlcNAc(b1-3)GalNAc
Method in brief: as §1

[38] = target: Fuc(a1-2)[GalNAc(a1-3)]Gal(b1-4)GlcNAc(b1-3)[Fuc(a1-2)[GalNAc(a1-3)]Gal(b1-4)GlcNAc(b1-6)]GalNAc
Method in brief: as §1

[39] = target: Fuc(a1-2)[GalNAc(a1-3)]Gal(b1-4)GlcNAc(b1-6)GalNAc
Method in brief: as §1

[40] = target: Fuc(a1-2)[GalNAc(a1-3)]Gal(b1-4)[Fuc(a1-3)]GlcNAc
Method in brief: as §1

[41] = target: Fuc(a1-2)[GalNAc(a1-3)]Gal(b1-4)[Fuc(a1-3)]GlcNAc(b1-3)GalNAc
Method in brief: as §1

[42] = target: Fuc(a1-2)[GalNAc(a1-4)]Gal(b1-4)GlcNAc
Method in brief: as §1

[43] = target: Fuc(a1-2)[GalNAc(b1-3)]Gal
Method in brief: as §1

B1: AntigenI/IIC123 (Streptococcus mutans), C9E3B4 (protein)
chain: MASMTGGQQMGRIHFHYFKLAVQPQVNKEIRNNNDINIDRTLVAKQSVVKFQLKTADLPAGRDETTSFVLVDPLPSGYQFNPEATKAASPGFDVTYDNATNTVTFKATAATLATFNADLTKSVATIYPTVVGQVLNDGATYKNNFTLTVNDAYGIKSNVVRVTTPGKPNDPDNPNNNYIKPTKVNKNENGVVIDGKTVLAGSTNYYELTWDLDQYKNDRSSADTIQKGFYYVDDYPEEALELRQDLVKITDANGNEVTGVSVDNYTNLEAAPQEIRDVLSKAGIRPKGAFQIFRADNPREFYDTYVKTGIDLKIVSPMVVKKQMGQTGGSYENQAYQIDFGNGYASNIIINNVPKINPKKDVTLTLDPADTNNVDGQTIPLNTVFNYRLIGGIIPADHSEELFEYNFYDDYDQTGDHYTGQYKVFAKVDITFKDGSIIKSGAELTQYTTAEVDTAKGAITIKFKEAFLRSVSIDSAFQAESYIQMKRIAVGTFENTYINTVNGVTYSSLEHHHHHH
glycan array binding signal (z-score) [1]: -0.485
glycan array binding signal (z-score) [2]: -0.336
glycan array binding signal (z-score) (Fuc(a1-2)Gal6S(b1-4)Glc): -0.633
glycan array binding signal (z-score) [3]: -0.006
glycan array binding signal (z-score) (Fuc(a1-2)[Gal(a1-3)]Gal): 0.474
glycan array binding signal (z-score) [4]: -0.631
glycan array binding signal (z-score) [5]: -0.386
glycan array binding signal (z-score) [6]: -0.322
glycan array binding signal (z-score) [7]: 0.134
glycan array binding signal (z-score) [8]: 0.417
glycan array binding signal (z-score) [9]: -0.435
glycan array binding signal (z-score) [10]: -1.42
glycan array binding signal (z-score) [11]: -0.358
glycan array binding signal (z-score) [12]: -0.246
glycan array binding signal (z-score) [13]: -1
glycan array binding signal (z-score) [14]: 1.57
glycan array binding signal (z-score) [15]: -0.093
glycan array binding signal (z-score) [16]: -0.914
glycan array binding signal (z-score) [17]: -0.838
glycan array binding signal (z-score) [18]: -0.437
glycan array binding signal (z-score) [19]: -0.318
glycan array binding signal (z-score) [20]: 0.247
glycan array binding signal (z-score) [21]: 0.108
glycan array binding signal (z-score) [22]: -0.896
glycan array binding signal (z-score) [23]: -0.867
glycan array binding signal (z-score) [24]: -0.644
glycan array binding signal (z-score) [25]: -0.781
glycan array binding signal (z-score) [26]: -0.012
glycan array binding signal (z-score) [27]: 1.14
glycan array binding signal (z-score) [28]: 2.85
glycan array binding signal (z-score) [29]: -0.614
glycan array binding signal (z-score) [30]: -0.076
glycan array binding signal (z-score) [31]: -0.789
glycan array binding signal (z-score) [32]: -0.357
glycan array binding signal (z-score) [33]: -0.028
glycan array binding signal (z-score) [34]: 0.373
glycan array binding signal (z-score) [35]: -0.941
glycan array binding signal (z-score) [36]: 2.42
glycan array binding signal (z-score) [37]: -0.86
glycan array binding signal (z-score) [38]: -0.412
glycan array binding signal (z-score) [39]: 0.022
glycan array binding signal (z-score) [40]: 0.143
glycan array binding signal (z-score) [41]: 2.63
glycan array binding signal (z-score) [42]: -0.213
glycan array binding signal (z-score) [43]: -0.66
